Assay results taken from paper PMC6488673, “Crystal structure of the Lin28-interacting module of human terminal uridylyltransferase that regulates let-7 expression”.
These are yes or no findings as the source states them, for the method shown.

The chains behind the UniProt entries cited, without tags or fusion partners. Where a name states a change or a piece, a line headed by the entry shows the natural chain unless it says otherwise.
UniProt Q5TAX3: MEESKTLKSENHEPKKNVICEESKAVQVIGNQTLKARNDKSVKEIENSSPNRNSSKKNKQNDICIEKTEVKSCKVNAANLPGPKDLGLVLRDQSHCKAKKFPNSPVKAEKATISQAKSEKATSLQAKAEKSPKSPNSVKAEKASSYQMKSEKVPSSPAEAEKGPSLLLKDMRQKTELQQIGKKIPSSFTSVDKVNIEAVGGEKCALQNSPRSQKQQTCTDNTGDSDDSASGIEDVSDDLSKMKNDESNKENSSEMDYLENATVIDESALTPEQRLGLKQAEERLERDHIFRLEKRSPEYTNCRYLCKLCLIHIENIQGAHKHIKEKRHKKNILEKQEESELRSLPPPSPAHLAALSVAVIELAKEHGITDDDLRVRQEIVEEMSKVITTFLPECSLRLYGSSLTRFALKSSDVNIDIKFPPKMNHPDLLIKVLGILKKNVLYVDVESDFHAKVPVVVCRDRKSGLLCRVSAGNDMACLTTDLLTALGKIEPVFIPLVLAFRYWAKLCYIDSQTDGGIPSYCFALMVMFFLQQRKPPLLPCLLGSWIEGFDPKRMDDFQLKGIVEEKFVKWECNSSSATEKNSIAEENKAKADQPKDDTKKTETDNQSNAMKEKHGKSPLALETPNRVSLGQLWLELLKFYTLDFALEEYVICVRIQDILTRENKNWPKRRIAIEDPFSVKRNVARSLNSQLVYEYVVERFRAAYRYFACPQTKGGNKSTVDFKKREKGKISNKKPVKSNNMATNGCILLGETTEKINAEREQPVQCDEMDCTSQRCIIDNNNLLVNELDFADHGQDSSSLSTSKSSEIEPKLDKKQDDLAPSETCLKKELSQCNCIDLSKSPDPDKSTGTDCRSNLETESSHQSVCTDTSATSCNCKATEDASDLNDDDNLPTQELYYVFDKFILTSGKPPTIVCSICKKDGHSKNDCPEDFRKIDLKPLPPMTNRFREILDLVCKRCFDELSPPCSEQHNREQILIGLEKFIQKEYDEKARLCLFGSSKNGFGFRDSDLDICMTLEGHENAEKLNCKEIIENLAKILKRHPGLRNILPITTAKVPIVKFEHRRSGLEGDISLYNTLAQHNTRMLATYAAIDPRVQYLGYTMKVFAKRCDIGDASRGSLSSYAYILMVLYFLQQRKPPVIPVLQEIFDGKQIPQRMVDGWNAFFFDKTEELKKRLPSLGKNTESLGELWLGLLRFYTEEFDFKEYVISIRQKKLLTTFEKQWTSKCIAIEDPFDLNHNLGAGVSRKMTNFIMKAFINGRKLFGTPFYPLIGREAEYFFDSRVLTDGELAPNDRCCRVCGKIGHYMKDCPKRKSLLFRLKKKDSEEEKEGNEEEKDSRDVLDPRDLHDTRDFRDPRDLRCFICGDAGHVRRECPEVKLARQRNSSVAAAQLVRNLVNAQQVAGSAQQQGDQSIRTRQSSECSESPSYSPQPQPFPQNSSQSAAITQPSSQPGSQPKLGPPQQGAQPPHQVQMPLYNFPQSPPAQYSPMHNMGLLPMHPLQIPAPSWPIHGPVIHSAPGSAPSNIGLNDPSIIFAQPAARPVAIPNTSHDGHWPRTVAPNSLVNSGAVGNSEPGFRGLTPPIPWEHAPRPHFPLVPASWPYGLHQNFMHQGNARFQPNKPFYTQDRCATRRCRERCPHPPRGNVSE

Target: T1, recombinant human Lin28A (residues 1-209) (human) (UniProt Q9H9Z2)
T1 sequence: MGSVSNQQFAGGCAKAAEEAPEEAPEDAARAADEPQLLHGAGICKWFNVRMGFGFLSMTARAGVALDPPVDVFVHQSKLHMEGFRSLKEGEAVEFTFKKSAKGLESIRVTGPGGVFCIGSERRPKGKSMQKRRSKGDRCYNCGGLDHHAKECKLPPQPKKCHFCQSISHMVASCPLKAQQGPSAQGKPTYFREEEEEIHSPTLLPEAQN
Experiment: condition: 300 nM hTUT4 protein, 300 nM hLin28A, 100 nM pre-let-7a-1; native gel or EMSA; 300 nM recombinant hTUT4 protein with 100 nM pre-let-7a-1, with or without 300 nM recombinant hLin28A; 50 mM Tris-HCl pH 8.5, 100 mM NaCl, 10 mM MgCl2, 10 mM β-mercaptoethanol, 10% glycerol, 10 min at room temperature; native polyacrylamide gel stained with ethidium bromide; both purified

Question: How did the binding turn out when “hTUT4_N_ΔZ (human TUT4 residues 334-723) (from UniProt Q5TAX3) (domain or fragment)” was run?
Answer: no binding
